LiHisRS: 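Enzyme assay of histidyl-tRNA synthetase; the read-out is not stated. Target: Histidine-tRNA ligase, Leishmania infantum (UniProt A4I591). Compounds at 30 µM. Direction is inferred from retests: higher values go with stronger inhibition. The assay is labelled LdHisRS but filed under L. infantum. Of about 69,000 compounds tested this way, about 410 (0.6%) reached 50% or more in at least one test.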
CoaBC: 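Coenzyme A biosynthesis protein CoaBC, Mycobacterium tuberculosis (UniProt P9WNZ1). Enzyme assay of CoaBC with a phosphate dye (Biomol Green) read at 650 nm. Compounds at 30 µM. Direction is inferred from only a few compounds that gave an IC50; most scored high, so higher reads as stronger inhibition. Most strong results did not repeat in a second test. Of about 67,000 compounds tested this way, about 40 (0.06%) reached 50% or more in at least one test.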
MtTrpRS: 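Tryptophan-tRNA ligase, Mycobacterium tuberculosis (UniProt P9WFT3). Enzyme assay of tryptophanyl-tRNA synthetase; the read-out is not stated. Tested at 10 µM. Direction is not recorded; retested compounds ran higher, which suggests that high means inhibition. Of about 65,000 compounds tested this way, about 64 (0.098%) reached 50% or more in at least one test.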

Amino acid sequences for entries named in this document (tags omitted). Residues count along the entry.
UniProt A4I591, 1-473: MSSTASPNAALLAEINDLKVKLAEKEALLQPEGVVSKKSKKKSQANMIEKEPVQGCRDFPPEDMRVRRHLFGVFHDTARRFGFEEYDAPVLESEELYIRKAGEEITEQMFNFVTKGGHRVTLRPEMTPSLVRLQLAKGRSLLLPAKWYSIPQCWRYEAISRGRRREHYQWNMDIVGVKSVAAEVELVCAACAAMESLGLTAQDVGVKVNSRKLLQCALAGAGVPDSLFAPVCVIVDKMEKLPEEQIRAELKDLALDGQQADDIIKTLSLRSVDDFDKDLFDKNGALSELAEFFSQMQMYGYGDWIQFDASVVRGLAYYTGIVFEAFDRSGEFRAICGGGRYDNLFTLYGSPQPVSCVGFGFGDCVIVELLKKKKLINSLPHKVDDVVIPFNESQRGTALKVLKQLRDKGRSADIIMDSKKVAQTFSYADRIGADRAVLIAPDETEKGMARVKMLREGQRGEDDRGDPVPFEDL
UniProt P9WNZ1, whole entry: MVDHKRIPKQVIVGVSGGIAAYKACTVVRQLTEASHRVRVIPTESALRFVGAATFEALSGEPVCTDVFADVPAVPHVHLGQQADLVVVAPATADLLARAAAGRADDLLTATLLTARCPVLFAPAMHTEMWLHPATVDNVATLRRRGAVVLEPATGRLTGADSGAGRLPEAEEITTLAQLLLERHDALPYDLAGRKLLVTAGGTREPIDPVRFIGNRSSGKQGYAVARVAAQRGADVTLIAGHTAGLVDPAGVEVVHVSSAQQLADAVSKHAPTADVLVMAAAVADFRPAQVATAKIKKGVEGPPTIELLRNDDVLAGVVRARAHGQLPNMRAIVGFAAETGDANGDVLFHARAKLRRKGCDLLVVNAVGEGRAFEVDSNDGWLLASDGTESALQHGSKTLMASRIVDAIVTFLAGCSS
UniProt P9WFT3, whole entry: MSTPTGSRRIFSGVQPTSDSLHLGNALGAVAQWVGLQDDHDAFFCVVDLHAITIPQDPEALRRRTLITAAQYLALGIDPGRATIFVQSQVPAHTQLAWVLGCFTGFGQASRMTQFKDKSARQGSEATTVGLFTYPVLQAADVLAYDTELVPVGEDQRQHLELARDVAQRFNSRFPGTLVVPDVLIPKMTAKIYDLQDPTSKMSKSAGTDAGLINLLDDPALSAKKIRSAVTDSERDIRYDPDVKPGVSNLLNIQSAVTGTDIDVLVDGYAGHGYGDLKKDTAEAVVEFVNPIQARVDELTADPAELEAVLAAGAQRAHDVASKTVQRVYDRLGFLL

Values are the deposited “Percent Effect”, in %. The controls that fix the scale are not given in the record; negative values are as filed. The compounds are a random part of those screened.

structure | LiHisRS | CoaBC | MtTrpRS
CC[C@H]1COCCN1C(=O)c1ccc(OC)c(N2CCOCC2)c1 | 10.64 | -2.481 | 7.043
O=C(NC1CC1)C(c1ccccc1)N1CCN(Cc2ccc(Cl)s2)CC1 (stereo not shown) | 1.77 | 6.315 | 1.72
O=S(=O)(CCc1ccccc1)Cc1nc(C2CC2)no1 | 0 | 5.556 | -1.642
Brc1ccc(CN2CCC(NCc3ncc[nH]3)CC2)cc1 | 8.219 | -39.88 | -0.7802
Cc1cc2[nH]c(=O)c(=O)[nH]c2cc1S(=O)(=O)NC1CCCCC1 | 17.81 | -3.557 | -1.527
CC(C#N)(NC(=O)Cn1cc(I)cn1)C1CC1 (stereo not shown) | -6.667 | -5.372 | 3.979
CC(=O)N1[C@H](Cn2cncn2)C[C@@H]2CN(C(=O)c3ccoc3)CC[C@@H]21 | 13.46 | 4.247 | -3.052
O=C(Cc1ccsc1)N1C[C@@H]2COC[C@]2(COCc2cccnc2)C1 | 7.965 | 1.053 | 0.3984
COCCOCC(=O)N1CCC(c2ccccc2F)C1 (stereo not shown) | 5.479 | 18.18 | -2.825
CC(C)Oc1ncnc2c1CCN(C(=O)c1cccn1C)CC2 | 12.41 | 11.14 | -4.053
CCOC1CCN(C(=O)c2csc(S(N)(=O)=O)c2)CC1 | 14.29 | 9.89 | 0.2329
Cc1ncc(CN(C)CC(O)c2cccc(C(F)(F)F)c2)s1 (stereo not shown) | 5.714 | -8.423 | 0.6717
Cc1ccc(CN2CCN(CC3CC3)[C@@H]3CS(=O)(=O)C[C@@H]32)cc1C | 14.56 | -6.25 | -5.684
CCc1cnc(CN(C(C)=O)C2CCN(CCc3cnn(C)c3)C2)o1 (stereo not shown) | -1.515 | 3.506 | -1.462
Cc1oc(-c2ccsc2)nc1CC(=O)NCCCS(C)(=O)=O | 22.35 | 2.792 | 1.872
CN(Cc1ccco1)C(=O)CN1CCCCC1Cn1cncn1 (stereo not shown) | 8.264 | 12.31 | 3.824
N#CCSCCCN1CCC(C(=O)N2CCCCCC2)CC1 | 6.667 | 11.16 | -0.7958
O=C(CCC(=O)N1CCc2ccccc2C1)c1cccs1 | 18.42 | 6.855 | -4.47
Cc1cnc(C(=O)N2CCCC(n3nc(C)nc3C)C2)cn1 (stereo not shown) | 9.649 | -2.678 | -5.367
Cc1ccc(CN2CCCC(c3cnccn3)C2)s1 (stereo not shown) | 17.39 | -9.198 | -11.06
OCCN1CCN(Cc2cc3c(cc2Br)OCCO3)CC1 | 20.55 | 0.9615 | 4.674
CNS(=O)(=O)CC1CCCN1c1ccccn1 (stereo not shown) | 1.571 | 2.609 | -2.216
CCOC(=O)N1CCC(NC(C)c2ccccc2-n2cccn2)CC1 (stereo not shown) | 12.2 | -4.707 | 1.782
O=C(NCc1ccccc1CO)Nc1ccc2c(c1)CCO2 | 25 | 12.3 | 10.45
CN(Cc1cc2n(n1)CCNC2)Cc1n[nH]c2c1CCC2 | 14.75 | 2.033 | 2.929
Cc1cc(NC(=O)N2CCOCC2)nn1-c1ccccc1Cl | 5.376 | -0.3654 | 1.718
CN(C)C(=O)NCc1ncn2c1CN(Cc1ccco1)CCC2 | 11.11 | 0.8333 | -0.07052
COCc1nc(C(=O)N2CCCC(n3cccn3)C2)cs1 (stereo not shown) | 9.375 | 1.054 | 3.155
O=S(=O)(NCCCn1ccc2ccccc21)N1CCCCC1 | 9.677 | 6.212 | 7.731
CCN(CC)c1ncc(S(=O)(=O)c2cccc(C)c2)c(N)n1 | 14.29 | -2.358 | -6.467
CCn1nc(C)c(CCNC(=O)C2CCCN(C3CCCC3)C2)c1C (stereo not shown) | 10.59 | -3.553 | 1.485
CN(C)C(=O)C1(c2cnccn2)CCCN1C(=O)Cc1ccccc1 (stereo not shown) | 11.59 | -1.051 | -6.911
CS(=O)(=O)NC[C@]12COC[C@H]1CN(C(=O)Cc1ccccc1F)C2 | -239.8 | -13.31 | -3.197
CC1(C)CC(N2CCN(C3CCCC3)C(CCO)C2)CC(C)(C)C1 (stereo not shown) | 18.52 | -0.2551 | 0
COCCN1C(=O)CCC12CCCN(C(=O)CC1CC1)CC2 (stereo not shown) | 17.43 | 0.2353 | -5.804
Cc1noc([C@@H]2C[C@H]3CN(Cc4cc(C)on4)C[C@H]3O2)n1 | 10.68 | -2.662 | -0.1103
Cc1ccccc1NS(=O)(=O)c1ccc(C(=O)O)cc1F | 7.692 | -4.225 | -2.328
O=C1C[C@H]2CC[C@@H](CN1)N2C(=O)CCc1ccc2c(c1)OCO2 | 12.59 | 5.679 | -5.168
O=C(c1cnc(-c2ccccn2)s1)N1CCCC(n2cccn2)C1 (stereo not shown) | 14.04 | 8.82 | 31.09
CN(C)Cc1cc(CC2(NCc3ccc(C#N)cc3)COC2)no1 | 25 | 5.484 | -1.58

Measurements from “University of Dundee, Small-Polar-MMV Screening Library” (2021), ChEMBL document CHEMBL3988442.